Measured values from publication PMC7484759.
These are yes or no findings as the source states them, for the method shown. Binding seen in cells or lysates may run through a third protein. Some binding calls cover weakened binding; strength is not graded here.

By UniProt entry, the sequences of proteins in these tests, tags left out.
UniProt Q9UNE7: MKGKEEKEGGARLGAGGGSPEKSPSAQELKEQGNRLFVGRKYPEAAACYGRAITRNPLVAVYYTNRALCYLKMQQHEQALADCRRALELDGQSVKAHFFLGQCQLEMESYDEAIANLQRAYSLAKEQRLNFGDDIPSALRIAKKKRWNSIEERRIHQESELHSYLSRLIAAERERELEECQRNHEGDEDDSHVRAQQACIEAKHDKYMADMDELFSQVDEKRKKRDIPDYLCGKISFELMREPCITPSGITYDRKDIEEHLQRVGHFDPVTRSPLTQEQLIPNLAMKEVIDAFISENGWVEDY

Molecular target: T1, NOXA (endogenous) (human (endogenous in HeLa)) (UniProt Q13794)
T1 sequence: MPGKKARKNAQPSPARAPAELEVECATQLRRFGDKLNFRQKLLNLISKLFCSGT
Assay: co-IP; endogenous NOXA precipitated with NOXA antibody (clone N-15) and Protein G beads from HeLa cells treated with DOX as indicated; cells cross-linked with 2.5 mM DSS before lysis; western blot

**Q.** For “CHIP (carboxyl-terminus of Hsc70-interacting protein) (from UniProt Q9UNE7 1-303) (enzyme)”, which binding is on record?
**A.** binds

B1: A1 (protein, UniProt Q16548 1-175)
chain: MTDCEFGYIYRLAQDYLQCVLQIPQPGSGPSKTSRVLQNVAFSVQKEVEKNLKSCLDNVNVVSVDTARTLFNQVMEKEFEDGIINWGRIVTIFAFEGILIKKLLRQQIAPDVDTYKEISYFVAEFIMNNTGEWIRQNGGWENGFVKKFEPKSGWMTFLEVTGKICEMLSLLKQYC
**Q.** Which binding does the source give for B1 here?
**A.** binds
